Positions count from the first letter of the chain named. No constants are given. Whether binding was seen depends on the method and setting. For some assays here: Binding can be weak; no strength is given. Tags and fused reporters may be left off the sequences shown. For some assays here: Binding seen in cells or lysates may run through a third protein. Values belong to the substance of their own block, whether it stands above or below them.
Tests used:
[1] = target: T1, AtCFL1 with C171 and C174 residues mutated (C171A C174A), GAL4 DNA binding domain fusion (Arabidopsis thaliana) (UniProt Q5HZ54); experiment: two-hybrid; bait (pDEST32) and prey (pDEST22) co-transformed into yeast strain AH109; growth on SD-Leu-Trp-His and SD-Leu-Trp-His with 5 mM 3-amino-1,2,4-triazole; three biological replicates
T1 sequence: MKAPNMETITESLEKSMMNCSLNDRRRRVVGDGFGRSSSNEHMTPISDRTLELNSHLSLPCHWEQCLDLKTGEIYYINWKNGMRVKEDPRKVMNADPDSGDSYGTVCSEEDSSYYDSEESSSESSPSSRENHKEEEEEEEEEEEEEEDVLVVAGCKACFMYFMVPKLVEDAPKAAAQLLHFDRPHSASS

Chains of the proteins cited; added tags and fusions are not shown. Lines headed by an entry give the natural chain unless they say otherwise; changes in a name come on top.
UniProt Q9C690: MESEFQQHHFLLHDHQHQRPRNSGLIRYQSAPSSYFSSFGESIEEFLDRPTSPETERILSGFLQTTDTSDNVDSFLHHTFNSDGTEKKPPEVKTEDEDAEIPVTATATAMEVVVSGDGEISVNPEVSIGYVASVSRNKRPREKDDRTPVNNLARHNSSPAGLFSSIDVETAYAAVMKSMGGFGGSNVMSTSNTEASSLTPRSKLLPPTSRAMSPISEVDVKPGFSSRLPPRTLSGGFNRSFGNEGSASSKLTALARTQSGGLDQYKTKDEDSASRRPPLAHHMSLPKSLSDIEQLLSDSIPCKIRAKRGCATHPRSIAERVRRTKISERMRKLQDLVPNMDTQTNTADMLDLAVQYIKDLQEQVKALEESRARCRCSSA
UniProt Q9C8P8: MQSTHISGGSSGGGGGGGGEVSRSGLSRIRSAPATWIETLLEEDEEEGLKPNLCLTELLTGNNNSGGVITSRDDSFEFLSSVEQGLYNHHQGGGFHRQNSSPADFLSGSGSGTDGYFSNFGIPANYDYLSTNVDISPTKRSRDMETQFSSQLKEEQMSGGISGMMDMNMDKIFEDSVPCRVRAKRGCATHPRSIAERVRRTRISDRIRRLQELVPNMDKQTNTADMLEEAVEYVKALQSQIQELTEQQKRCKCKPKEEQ
UniProt Q9M0R0: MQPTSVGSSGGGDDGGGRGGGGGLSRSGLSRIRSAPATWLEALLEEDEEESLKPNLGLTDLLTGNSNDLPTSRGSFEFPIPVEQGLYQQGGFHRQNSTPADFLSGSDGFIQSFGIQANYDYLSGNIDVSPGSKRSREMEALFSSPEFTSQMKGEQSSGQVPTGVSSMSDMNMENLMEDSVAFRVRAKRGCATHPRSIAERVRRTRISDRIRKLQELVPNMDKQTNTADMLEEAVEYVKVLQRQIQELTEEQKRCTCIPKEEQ
UniProt Q66GR3: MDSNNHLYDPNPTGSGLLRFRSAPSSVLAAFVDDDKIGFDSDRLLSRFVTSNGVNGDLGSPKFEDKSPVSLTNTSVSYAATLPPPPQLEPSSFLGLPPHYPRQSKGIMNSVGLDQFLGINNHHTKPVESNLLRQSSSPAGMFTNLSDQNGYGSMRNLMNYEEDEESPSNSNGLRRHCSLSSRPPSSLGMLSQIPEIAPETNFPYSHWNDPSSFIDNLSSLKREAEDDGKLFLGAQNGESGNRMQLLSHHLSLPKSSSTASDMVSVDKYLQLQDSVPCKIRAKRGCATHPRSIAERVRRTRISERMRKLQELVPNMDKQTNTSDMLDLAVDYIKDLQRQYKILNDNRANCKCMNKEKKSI

[2] = target: T2, AtCFL1 C77, C-terminal 77 amino acid residues of AtCFL1, GAL4 DNA binding domain fusion (Arabidopsis thaliana) (UniProt Q5HZ54); experiment: as above
T2 sequence: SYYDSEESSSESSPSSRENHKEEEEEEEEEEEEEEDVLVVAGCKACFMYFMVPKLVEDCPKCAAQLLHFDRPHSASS

[3] = target: T3, AtCFL1 with C155, C158, C171 and C174 residues mutated (C155A C158A C171A C174A), GAL4 DNA binding domain fusion (Arabidopsis thaliana) (UniProt Q5HZ54); experiment: as above
T3 sequence: T1 sequence with C155A, C158A

[4] = target: T4, AtCFL1 ΔC20, AtCFL1 with the C-terminal 20 amino acid residues deleted, GAL4 DNA binding domain fusion (Arabidopsis thaliana) (UniProt Q5HZ54); experiment: as above
T4 sequence: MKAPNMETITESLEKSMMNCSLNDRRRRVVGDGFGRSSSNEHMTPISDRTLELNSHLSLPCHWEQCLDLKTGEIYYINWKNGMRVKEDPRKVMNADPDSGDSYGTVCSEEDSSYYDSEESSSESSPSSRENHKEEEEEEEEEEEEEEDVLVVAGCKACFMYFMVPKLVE

[5] = target: T5, AtCFL1 C98, C-terminal 98 amino acid residues of AtCFL1, GAL4 DNA binding domain fusion (Arabidopsis thaliana) (UniProt Q5HZ54); experiment: as above
T5 sequence: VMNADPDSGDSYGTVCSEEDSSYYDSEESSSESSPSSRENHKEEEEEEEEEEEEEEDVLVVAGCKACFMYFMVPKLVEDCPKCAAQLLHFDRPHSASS

[6] = target: T6, AtCFL1C, C-terminal of AtCFL1 with 119 amino acid residues, GAL4 DNA binding domain fusion (Arabidopsis thaliana) (UniProt Q5HZ54); experiment: as above
T6 sequence: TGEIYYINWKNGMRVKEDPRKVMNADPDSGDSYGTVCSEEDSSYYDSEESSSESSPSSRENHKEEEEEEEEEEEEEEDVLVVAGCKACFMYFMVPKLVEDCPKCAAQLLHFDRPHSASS

[7] = target: T7, AtCFL1 C50, C-terminal 50 amino acid residues of AtCFL1, GAL4 DNA binding domain fusion (Arabidopsis thaliana) (UniProt Q5HZ54); experiment: as above
T7 sequence: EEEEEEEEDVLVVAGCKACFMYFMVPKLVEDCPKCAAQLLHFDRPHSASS

[8] = target: T8, AtCFL1, full length, GAL4 DNA binding domain fusion (pDEST32-AtCFL1) (Arabidopsis thaliana) (UniProt Q5HZ54); experiment: as above
T8 sequence: T1 sequence with A171C, A174C

[9] = target: T9, AtCFL1N, N-terminal of AtCFL1 with 70 amino acid residues, GAL4 DNA binding domain fusion (Arabidopsis thaliana) (UniProt Q5HZ54); experiment: as above
T9 sequence: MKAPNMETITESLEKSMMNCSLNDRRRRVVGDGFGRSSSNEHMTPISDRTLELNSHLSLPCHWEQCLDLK

[10] = target: T10, AtCFL1 with C155 and C158 residues mutated (C155A C158A), GAL4 DNA binding domain fusion (Arabidopsis thaliana) (UniProt Q5HZ54); experiment: as above
T10 sequence: T1 sequence with C155A, C158A, A171C, A174C

[11] = target: T8, AtCFL1, full length, GAL4 DNA binding domain fusion (pDEST32-AtCFL1) (Arabidopsis thaliana); experiment: two-hybrid; mating-based screen of an Arabidopsis transcription factor library (1598 transcription factors) with the bait pDEST32-AtCFL1 in yeast strain AH109
[12] = target: T11, cLUC-AtCFL1 (Arabidopsis thaliana) (UniProt Q5HZ54); experiment: split reporter; firefly luciferase complementation imaging; nLUC and cLUC fusions co-infiltrated into Nicotiana benthamiana leaves, luciferin sprayed, CCD imaging
T11 sequence: T1 sequence with A171C, A174C

[13] = target: T12, AtCFL1-myc (Arabidopsis thaliana) (UniProt Q5HZ54); experiment: co-IP; AtCFL1-myc and GFP-CFLAP1 transiently co-expressed in Nicotiana benthamiana leaves; procedure as in ref. 58; two biological replicates
T12 sequence: T1 sequence with A171C, A174C

binding [1]: no binding
binding [2]: binds
binding [3]: no binding
binding [4]: no binding
binding [5]: binds
binding [6]: binds
binding [7]: binds
binding [8]: binds
binding [9]: no binding
binding [10]: no binding
binding [11]: binds
Substance: AtCFL1 associated protein 1 (CFLAP1), GAL4 activation domain fusion (pDEST22-CFLAP1) (from UniProt Q9C690)

binding [12]: binds
Substance: CFLAP1-nLUC (from UniProt Q9C690)

binding [1]: no binding
binding [3]: no binding
binding [8]: binds
binding [10]: no binding
Substance: CFLAP2 (FBH1), two-hybrid prey in pDEST22 (from UniProt Q9C8P8)

binding [12]: binds
Substance: CFLAP2-nLUC (from UniProt Q9C8P8)

binding [8]: no binding
Substance: FBH2, two-hybrid prey in pDEST22 (from UniProt Q9M0R0)

binding [8]: no binding
Substance: FBH4, two-hybrid prey in pDEST22 (from UniProt Q66GR3)

binding [13]: binds
Substance: GFP-CFLAP1 (from UniProt Q9C690)

From article PMC4706423
